According to publication PMC7724566, “Prospects for Clinical Development of Stat5 Inhibitor IST5-002: High Transcriptomic Specificity in Prostate Cancer and Low Toxicity In Vivo” (Cancers, 2020):
Results are given in words; binding and its absence hold for the method and conditions named. For part of these data: Binding seen in cells or lysates may run through a third protein. Some entries that bind do so weakly or less than the wild type.

The chains behind the UniProt entries cited, without tags or fusion partners. Where a name states a change or a piece, a line headed by the entry shows the natural chain unless it says otherwise.
UniProt P42229: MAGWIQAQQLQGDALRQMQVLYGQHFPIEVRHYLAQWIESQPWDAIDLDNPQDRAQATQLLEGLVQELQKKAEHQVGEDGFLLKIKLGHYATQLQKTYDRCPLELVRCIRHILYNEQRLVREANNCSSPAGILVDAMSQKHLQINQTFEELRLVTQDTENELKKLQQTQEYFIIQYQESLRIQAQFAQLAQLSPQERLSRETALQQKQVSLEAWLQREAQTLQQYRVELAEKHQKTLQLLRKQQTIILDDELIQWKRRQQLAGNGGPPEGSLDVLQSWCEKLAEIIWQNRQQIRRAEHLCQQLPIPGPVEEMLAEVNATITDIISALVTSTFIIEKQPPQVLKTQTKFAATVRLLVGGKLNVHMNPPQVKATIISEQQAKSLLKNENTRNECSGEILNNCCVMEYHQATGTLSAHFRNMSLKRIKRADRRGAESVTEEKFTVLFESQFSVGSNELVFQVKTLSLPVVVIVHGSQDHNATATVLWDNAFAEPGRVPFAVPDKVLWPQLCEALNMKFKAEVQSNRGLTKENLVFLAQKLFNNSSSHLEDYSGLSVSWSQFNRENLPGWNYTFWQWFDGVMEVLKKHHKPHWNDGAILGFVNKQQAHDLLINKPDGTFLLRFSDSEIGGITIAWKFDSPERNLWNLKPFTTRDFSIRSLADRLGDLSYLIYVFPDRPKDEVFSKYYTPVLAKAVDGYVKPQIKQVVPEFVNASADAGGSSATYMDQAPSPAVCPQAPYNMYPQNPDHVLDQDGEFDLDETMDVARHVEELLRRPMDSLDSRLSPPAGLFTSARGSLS

Legend:
[1] = molecular target: STAT5A-eYFP (Stat5 wild type) (UniProt P42229); assay: native gel or EMSA; blue native PAGE (NativePAGE Bis-Tris 4-16%, 4 °C) of cleared lysates of transfected CWR22Rv1 cells; cells serum-starved 16 h, vanadate 1 mM 2 h, vehicle, IST5 or IST5-M (1 µM) 6 h, Prl 10 nM 1 h; monomer and dimer told apart by molecular weight through eYFP fluorescence in the gel
[2] = molecular target: FLAG-tagged Stat5a and MYC-tagged Stat5a (full-length Stat5a in pCMV-3FLAG and pCMV-3MYC) (UniProt P42229); assay: co-IP; PC-3 cells co-transfected with FLAG-Stat5a, MYC-Stat5a and PrlR; serum-starved 16 h, IST5, IST5-M or vehicle 2 h, Prl 10 nM 30 min; whole-cell lysates precipitated with anti-MYC mAb, blotted with anti-FLAG mAb
[3] = molecular target: STAT5A-N642H-eYFP (constitutive activated Stat5 by N642H mutation) (UniProt P42229); assay: native gel or EMSA; blue native PAGE (NativePAGE Bis-Tris 4-16%, 4 °C) of cleared lysates of transfected CWR22Rv1 cells; cells serum-starved 16 h, vanadate 1 mM 2 h, vehicle, IST5 or IST5-M (1 µM) 6 h, Prl 10 nM 1 h; monomer and dimer told apart by molecular weight through eYFP fluorescence in the gel

With “STAT5A-eYFP (Stat5 wild type) (from UniProt P42229 1-794)” the binding [1] was “binds”.
For “FLAG-tagged Stat5a and MYC-tagged Stat5a (full-length Stat5a in pCMV-3FLAG and pCMV-3MYC) (from UniProt P42229 1-794)”, the binding [2] was “binds”.
For “STAT5A-N642H-eYFP (constitutive activated Stat5 by N642H mutation) (from UniProt P42229 1-794)”, the binding [3] was “binds”.
